Structures were worked out from names or drawings and are uncertain.

Protein sequences, listed by entry. Tags and fused reporters are not part of them.
UniProt P13945, whole entry: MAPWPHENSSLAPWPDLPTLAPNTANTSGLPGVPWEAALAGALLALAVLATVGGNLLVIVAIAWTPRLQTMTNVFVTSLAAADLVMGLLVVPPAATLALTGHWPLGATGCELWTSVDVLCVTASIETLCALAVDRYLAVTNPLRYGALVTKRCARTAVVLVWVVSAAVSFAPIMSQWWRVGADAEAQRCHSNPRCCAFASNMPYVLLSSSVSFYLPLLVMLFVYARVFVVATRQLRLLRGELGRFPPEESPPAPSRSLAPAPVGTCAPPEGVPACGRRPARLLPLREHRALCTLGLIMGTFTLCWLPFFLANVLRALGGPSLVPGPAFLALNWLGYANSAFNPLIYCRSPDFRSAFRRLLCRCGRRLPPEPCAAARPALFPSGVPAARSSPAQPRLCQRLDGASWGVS

This test addresses human β3 adrenergic receptor (Homo sapiens, UniProt P13945). Nature of the test: Functional assay: cAMP production in CHO cells stably transfected with cloned β3-adrenergic receptor (LANCE TR-FRET). The note with it: read-out: Human β3 agonist functional activity, Table 1. The class given is cell-based. The procedure: cAMP production in response to ligand is measured according to Barton, et al. (1991, Agonist-induced desensitization of D2 dopamine receptors in human Y-79 retinoblastoma cells. Mal. Pharmacol. v3229:650-658) modified as follows. cAMP production is measured using a homogenous time-resolved fluorescence resonance energy transfer immunoassay (LANCE™, Perkin Elmer) according to the manufacture's instructions. Chinese hamster ovary (CHO) cells, stably transfected with the cloned β-adrenergic receptor (β1, β2 or β3) are harvested after 3 days of subculturing. Harvesting of cells is done with Enzyme-free Dissociation. Media (Specialty Media). Cells are then counted and resuspended in assay buffer (Hank's Balanced salt solution supplemented with 5 mM HEPES, 0.1% BSA) containing a phosphodiesterase inhibitor (IBMX, 0.6 mM). The reaction is initiated by mixing 6,000 cells in 6 μL with 6 μL Alexa Fluor labeled cAMP antibody (LANCE™ kit) which is then added to an assay well containing 12 μL of compound (diluted in assay buffer to 2× final concentration). The reaction proceeds for 30 min at room temperature and is terminated by the addition of 24 μL detection buffer (LANCE™ kit). The assay plate is then incubated for 1 h at room temperature and time-resolved fluorescence measured on a Perkin Elmer Envision reader or equivalent. The unknown cAMP level is determined by comparing fluorescence levels to a cAMP standard curve.
The non-selective, full agonist β-adrenergic ligand isoproterenol is used at all three receptors to determine maximal stimulation. The human β3 adrenergic receptor (AR) selective ligand (S)—N-[4-[2-[[2-hydroxy-3-(4-hydroxyphenoxy)propyl]amino]ethyl]-phenyl]-4-iodobenzenesulfonamide is used as a control in all assays. Isoproterenol is titrated at a final concentration in the assay of 10^-10 M to 10-5 and the selective ligand (S)—N-[4-[2-[[2-hydroxy-3-(4-hydroxyphenoxy)propyl]amino]ethyl]phenyl]-4-iodobenzenesulfonamide is titrated at the β3 receptor at concentration of 10^-10 M to 10^-5 M. Unknown ligands are titrated at all 3β-adrenergic receptor subtypes at a final concentration in the assay of 10^-10 M to 10^-5 M to determine the EC50. The EC50 is defined as the concentration of compound that gives 50% activation of its own maximum. Data are analyzed using Microsoft Excel and Graphpad Prism or an internally developed data analysis software package.
A general note: cAMP levels reflect the balance of adenylyl cyclase and phosphodiesterase activity.
Take `O[C@H](c1ccccc1)[C@H]1CC[C@@H](Cc2ccc3nc(CCn4ccnc4)[nH]c3c2)N1`: the EC50 was in the range of 0.101 to 1 µM.
The same measure for `CC(c1cscn1)c1nc2ccc(C[C@@H]3CC[C@H]([C@H](O)c4ccccc4)N3)cc2[nH]1` (stereo partly drawn): 0.011 to 0.1 µM.
`O[C@H](c1ccccc1)[C@H]1CC[C@@H](Cc2ccc3nc(CCn4cccn4)[nH]c3c2)N1`: the EC50 fell in the range of 0.101 to 1 µM.
In the case of `Cc1nc2c(s1)CCCC2c1nc2ccc(C[C@@H]3CC[C@H]([C@H](O)c4ccccc4)N3)cc2[nH]1` (single isomer, unassigned) it was 0.101 to 1 µM; in that of `O[C@H](c1cccnc1)[C@H]1CC[C@@H](Cc2ccc3nc(CCn4ncc5ccccc54)[nH]c3c2)N1`, 0.011 to 0.1 µM; in that of `O[C@H](c1ccccc1)[C@H]1CC[C@@H](Cc2ccc3nc(CCc4cnccn4)[nH]c3c2)N1`, 0.101 to 1 µM.
With `O[C@H](c1ccccc1)[C@H]1CC[C@@H](Cc2ccc3nc(Cn4cccn4)[nH]c3c2)N1`, the EC50 is 0.101 to 1 µM.
The same measure for `O[C@H](c1ccccc1)[C@H]1CC[C@@H](Cc2ccc3nc(Cn4ncc5ccccc54)[nH]c3c2)N1`: 0.101 to 1 µM.
The same measure for `C[C@@H](c1nc2ccc(C[C@@H]3CC[C@H]([C@H](O)c4ccccc4)N3)cc2[nH]1)n1cnccc1=O`: 0.101 to 1 µM.

These data come from patent US8748433B2, “β3 adrenergic receptor agonists” (Merck Sharp & Dohme Corp., priority 2010, dated 2014).
